The whole screen tested about 1,400 compounds, of which about 210 (15%) were called active. Cut-off read from the data, not from the text of the source: active = inhibition mostly above about 39% (no sharp cut-off); inactive = mostly below about 34%. This is a selection; strong and weak results do not stand in their true shares.
What follows are compounds tested against Sentrin-specific protease 8 (Homo sapiens) (UniProt Q96LD8) (assay: human SENP8 protease inhibitors, confirmation, biochemical, Nedd8 protein substrate, single concentration (AID 624319)). Conditions: purified SENP8, Nedd8-AMC/pro-Nedd8 cleavage fluorescence, 30 min; at 25 µM; stronger effect = higher value.

The chains behind the UniProt entries cited, without tags or fusion partners. Where a name states a change or a piece, a line headed by the entry shows the natural chain unless it says otherwise.
UniProt Q96LD8: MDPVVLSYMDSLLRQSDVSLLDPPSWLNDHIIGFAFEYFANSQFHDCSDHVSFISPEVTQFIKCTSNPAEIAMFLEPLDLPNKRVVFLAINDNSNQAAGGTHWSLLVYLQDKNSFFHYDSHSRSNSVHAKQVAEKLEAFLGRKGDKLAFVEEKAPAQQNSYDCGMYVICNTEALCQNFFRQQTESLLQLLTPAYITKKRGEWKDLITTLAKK

Which inhibition does the source give for `COc1ccccc1N=Nc1c(O)[nH]c(=S)[nH]c1=O` here?
Its inhibition is inactive: 31.1%.

With `CC(Cc1ccccc1)NC=O` (stereo not drawn) as the compound, how does the inhibition read?
The inhibition was inactive: 7.84%.

For `CC1=C2C(=O)C3C(CC=C4CC(OC5OC(O)C(O)C(O)C5CO)CCC43C)C2CCC12OC1CC(C)CNC1C2C` (stereo not drawn), which inhibition is on record?
The inhibition was inactive: 3.46%.

— PubChem BioAssay AID624319 (Sanford-Burnham Center for Chemical Genomics, 2012)
